Experimental data from article PMC7935581.
Results are given in words; binding and its absence hold for the method and conditions named. Binding seen in cells or lysates may run through a third protein. Some entries that bind do so weakly or less than the wild type.

By UniProt entry, the sequences of proteins in these tests, tags left out. Residues count along the entry.
UniProt Q96P20: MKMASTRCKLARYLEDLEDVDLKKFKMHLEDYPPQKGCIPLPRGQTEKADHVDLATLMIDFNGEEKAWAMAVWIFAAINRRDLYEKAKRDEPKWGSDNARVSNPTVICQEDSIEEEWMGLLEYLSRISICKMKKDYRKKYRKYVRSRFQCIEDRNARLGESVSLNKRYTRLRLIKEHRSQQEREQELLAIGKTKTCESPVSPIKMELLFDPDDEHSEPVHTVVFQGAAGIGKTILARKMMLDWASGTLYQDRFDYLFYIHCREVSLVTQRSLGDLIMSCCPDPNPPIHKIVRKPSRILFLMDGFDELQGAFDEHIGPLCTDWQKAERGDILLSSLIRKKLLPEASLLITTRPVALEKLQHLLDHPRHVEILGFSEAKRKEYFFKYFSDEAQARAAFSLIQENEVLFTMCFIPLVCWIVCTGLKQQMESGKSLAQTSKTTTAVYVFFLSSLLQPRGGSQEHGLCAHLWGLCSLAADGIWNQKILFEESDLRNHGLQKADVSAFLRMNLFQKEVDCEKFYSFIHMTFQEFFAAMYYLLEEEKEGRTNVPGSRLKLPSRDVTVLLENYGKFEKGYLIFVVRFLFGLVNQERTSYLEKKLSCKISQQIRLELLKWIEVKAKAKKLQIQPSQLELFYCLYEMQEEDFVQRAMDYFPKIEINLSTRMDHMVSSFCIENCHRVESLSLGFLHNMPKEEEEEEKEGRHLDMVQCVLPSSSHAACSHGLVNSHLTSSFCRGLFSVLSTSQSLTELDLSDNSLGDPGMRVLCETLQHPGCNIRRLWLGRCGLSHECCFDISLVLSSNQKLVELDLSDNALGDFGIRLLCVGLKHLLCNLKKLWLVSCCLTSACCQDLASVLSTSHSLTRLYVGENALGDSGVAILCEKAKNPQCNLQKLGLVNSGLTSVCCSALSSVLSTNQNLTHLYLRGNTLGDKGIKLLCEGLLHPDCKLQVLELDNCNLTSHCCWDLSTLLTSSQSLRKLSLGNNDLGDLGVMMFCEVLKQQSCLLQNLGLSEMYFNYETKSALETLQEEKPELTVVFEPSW
UniProt O00206, residues 24-839: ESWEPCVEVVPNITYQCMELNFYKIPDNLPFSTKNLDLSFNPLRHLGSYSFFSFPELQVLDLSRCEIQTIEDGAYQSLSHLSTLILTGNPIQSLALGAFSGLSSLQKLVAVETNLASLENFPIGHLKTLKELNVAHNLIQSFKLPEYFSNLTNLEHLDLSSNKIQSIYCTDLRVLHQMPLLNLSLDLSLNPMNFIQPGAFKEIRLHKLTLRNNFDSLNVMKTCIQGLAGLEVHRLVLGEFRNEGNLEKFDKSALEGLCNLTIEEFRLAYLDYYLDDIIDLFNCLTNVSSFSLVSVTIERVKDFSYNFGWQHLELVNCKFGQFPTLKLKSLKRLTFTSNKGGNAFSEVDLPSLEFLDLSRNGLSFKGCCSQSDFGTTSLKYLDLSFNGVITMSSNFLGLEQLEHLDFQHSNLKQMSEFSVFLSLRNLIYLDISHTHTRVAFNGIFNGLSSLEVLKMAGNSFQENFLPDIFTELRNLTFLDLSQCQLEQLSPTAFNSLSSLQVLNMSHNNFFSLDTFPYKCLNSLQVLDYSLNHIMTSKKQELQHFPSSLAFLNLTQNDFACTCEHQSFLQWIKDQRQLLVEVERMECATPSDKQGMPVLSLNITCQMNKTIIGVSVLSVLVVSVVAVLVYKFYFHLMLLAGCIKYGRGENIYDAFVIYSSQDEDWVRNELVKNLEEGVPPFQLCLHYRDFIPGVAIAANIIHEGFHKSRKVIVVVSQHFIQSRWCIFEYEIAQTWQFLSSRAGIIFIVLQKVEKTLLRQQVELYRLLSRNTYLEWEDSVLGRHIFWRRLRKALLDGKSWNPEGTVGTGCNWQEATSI

Molecular target: nucleotide-binding domain leucine-rich repeat containing protein 3 (NLRP3) (human (endogenous in platelets)) (UniProt Q96P20)
Assay: co-IP; human platelets treated with or without resveratrol (100 uM, 10 min), then ox-LDL (0.1 mg/ml, 10 min); lysed in RIPA buffer; lysate with 1 ug anti-phosphorylated Syk or anti-NLRP3 monoclonal antibody at 4°C for 1 h, protein A/G beads overnight at 4°C; immunoblot; normal rabbit IgG as nonimmune control

- binding: binds
Substance: Toll-like receptor 4 (TLR4) (from UniProt O00206 24-839)
